# Laboratory results: PubChem BioAssay AID493014 (National Center for Advancing Translational Sciences (NCATS), 2011)
# This is one part of the list. These are further read-outs of the screen, such as a control signal, another cell line or another target. No call is given for them. Most of these compounds were active or inconclusive in the main read-out, so they are no random draw. Potencies come from curve fits of mixed quality, noted in brackets.
# Assay: qHTS Assay to Find Inhibitors of Chronic Active B-Cell Receptor Signaling
# Settings: ABC-DLBCL IkBa-CBG/CBR reporter, luminescence ratio (green luciferase fused to IkBa over red control in TMD8 lymphoma cells), 4 h
# Method in brief: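 TMD8 ABC-DLBCL cells carrying doxycycline-inducible green luciferase fused to IkappaBalpha plus unfused red luciferase were exposed to compounds (up to 46 uM) for 4 hrs at 37C. Activity came from the overlap-corrected green/red luminescence ratio.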
# [1] = measured here: CBR red luminescence, cell number
# [2] = measured here: IkBa-CBG green luminescence
Compound,AC50 [1],AC50 [2]
NC1=NC(c2cn(-c3ccccc3)nc2-c2cccs2)n2c(nc3ccccc32)N1 (stereo not drawn),"23.1 µM [rising, partial curve, poor fit]",–
Cc1ccc(NC(=O)CN2CCc3cc4c(cc3C2C)OCCCO4)cc1 (stereo not drawn),"22.4 µM [falling, single point]",–
Clc1ccc(-c2cnc3ccccc3n2)cc1,"2.59 µM [rising, full curve, poor fit]",–
CC(=O)C1C(=O)c2c(cccc2[N+](=O)[O-])C1=Nc1cccc(Cl)c1 (stereo not drawn),"12.6 µM [falling, single point]",–
Cc1c(CCC(=O)N[C@@H](CCCNC(N)=O)C(=O)O)c(=O)oc2cc3oc4c(c3cc12)CCCC4,"25.1 µM [rising, partial curve, poor fit]","7.94 µM [falling, partial curve, poor fit]"
COC(=O)c1ccc(/C=C(\C#N)c2ccccn2)cc1,"1.26 µM [rising, partial curve, poor fit]",–
CCn1c(SCC(=O)Nc2oc(-c3ccccc3)c(-c3ccccc3)c2C#N)nnc1-c1cc(OC)cc(OC)c1,"0.103 µM [falling, full curve, poor fit]",–
O=C(COc1ccc2ccccc2c1Br)N1CCOCC1,"20.6 µM [rising, partial curve, poor fit]",–
Cc1[nH]c2ccccc2c1/C=N/NC(=O)c1cccc(S(=O)(=O)Nc2cccc(C(F)(F)F)c2)c1,"22.4 µM [falling, single point]",–
Cc1ccc(C(=O)Nc2ccc(C(=O)O)cc2)cc1S(=O)(=O)NCc1ccccc1,"3.16 µM [rising, full curve, poor fit]",–
CC1(C)Cc2c(C#N)c(N3CCN(C(=O)c4ccccc4)CC3)nc(Cc3ccccc3)c2CO1,"1.84 µM [falling, partial curve, poor fit]",–
COCCN(CCOC)c1cc(C)c(C#N)c2nc3ccccc3n12,"0.00411 µM [rising, full curve, poor fit]",–
CC(=O)Nc1cc2nn(-c3ccccc3)nc2cc1Cl,"2.59 µM [rising, full curve, poor fit]",–
COc1ccc(C)cc1C(=O)CCC(=O)Nc1ccccc1N1CCOCC1,"29.1 µM [falling, single point]",–
CCC(Sc1nc(C)cc(=O)[nH]1)C(=O)Nc1nc(-c2ccccc2)cs1 (stereo not drawn),"14.6 µM [falling, partial curve, poor fit]","5.8 µM [rising, partial curve, poor fit]"
COc1ccc(/C=C2\Oc3cc(OCC(N)=O)ccc3C2=O)cc1OC,"6.31 µM [falling, single point]",–
CCn1ncc(Br)c1C(=O)Nc1ccc(OC(F)(F)F)cc1,"14.1 µM [rising, single point]",–
CC(C)Oc1ccc(C(=O)/C=C2/C(=O)Nc3ccccc32)cc1,"31.6 µM [rising, single point]","35.5 µM [falling, single point]"
COc1ccc(C(=O)N2CCN(C3CCCCC3)CC2)cc1OC,"3.55 µM [falling, full curve]",–
COc1ccc(-c2cc(C(=O)Nc3cc(C)ccc3O)no2)cc1,"1.41 µM [falling, partial curve, poor fit]",–
Cc1ccc(C(C#N)c2ccc(Cl)nn2)cc1 (stereo not drawn),"11.2 µM [falling, partial curve, poor fit]","15.8 µM [rising, partial curve, poor fit]"
CCCCNC(=O)/C=C/c1ccc(OC)c(Br)c1,"13 µM [rising, partial curve]",–
CC(=O)c1ccc(OCC(O)Cn2nnc3ccccc32)cc1 (stereo not drawn),"3.55 µM [rising, partial curve]",–
O=C(CCCn1c(SCc2cccc(F)c2)nc2ccccc2c1=O)NCC1CCCO1 (stereo not drawn),"0.0708 µM [falling, full curve, poor fit]",–
CCC1CCCCN1C(=O)COC(=O)c1cc(=O)[nH]c2ccccc12 (stereo not drawn),"25.9 µM [rising, single point]",–
Nc1[nH]n2c(=O)cc(-c3ccccc3)nc2c1N=Nc1ccc2c(c1)OCO2,"6.31 µM [falling, partial curve, poor fit]",–
CCOc1ccc(NC(=O)c2ccco2)cc1,"18.4 µM [falling, single point]",–
CCC1=C/C(=C/c2sc3ccccc3[n+]2CC)CC(C)(C)C1,"11.2 µM [falling, partial curve, poor fit]",–
COc1ccc(Cl)cc1NC(=O)C/C(C)=N/NC(=O)CCc1ccccc1,"7.08 µM [falling, partial curve]",–

# For reference, some entries already given:
Compound,AC50 [1],AC50 [2]
CC(=O)C1C(=O)c2c(cccc2[N+](=O)[O-])C1=Nc1cccc(Cl)c1 (stereo not drawn),"12.6 µM [falling, single point]",–
Cc1c(CCC(=O)N[C@@H](CCCNC(N)=O)C(=O)O)c(=O)oc2cc3oc4c(c3cc12)CCCC4,"25.1 µM [rising, partial curve, poor fit]","7.94 µM [falling, partial curve, poor fit]"
